Measurements published in PubChem BioAssay AID540256 (National Center for Advancing Translational Sciences (NCATS), 2011).
Among all 300,000 compounds or so, about 3,700 (1.2%) were called active. The inconclusive results got no clear call from the source; some entries with a clear call stand among them for comparison. The call rests on the fitted dose curve; tested in HEK293 cells. Potencies of inconclusive entries are doubtful fits and often do not repeat.

Assay: qHTS for Inhibitors of binding or entry into cells for Lassa Virus; further: nearly all actives have a fitted effect of over 50% in size
Settings: Lassa virus pseudotype entry inhibition, cell reporter; activity change, negative = inhibition: at 37.9 µM (top of the series) unless noted
On the % scale 0 is the no-effect control and ±100 the full control effect; potency means the concentration at half of the fitted maximal effect.

| Compound | Potency | activity change, negative = inhibition |
| --- | --- | --- |
| S=c1[nH]nc(COc2ccccc2)n1/N=C/c1cccnc1 | inconclusive: 9.2 µM [inhibitor, partial curve] | – |
| Cc1ccc(C(=O)Nc2nnc(S(=O)(=O)N3CCC(C)CC3)s2)cc1 | inconclusive: 7.94 µM [activator, partial curve, poor fit] | – |
| CC(NC(N)=O)C(=O)Nc1ccc(Cl)c(S(=O)(=O)Nc2ccc(Br)cc2)c1 (centres undefined) | – | inactive: 8.17% [at 46.1 µM] |
| CCN1CCN(c2ncc3c(n2)CCN(Cc2ccc(OC)c(OC)c2)C3)CC1 | – | inactive: -12.8% [at 46.1 µM] |
| CN(C)C(=O)c1ccc(-n2cnc3ccccc3c2=O)cc1 | – | inactive: 9.3% [at 46.1 µM] |
| Cc1ccn2c(NCc3ccccc3)c(-c3cccs3)nc2c1 | inconclusive: 12.6 µM [inhibitor, single point] | – |
| COc1cccc(COC(=O)c2ccc3c(=O)n4c(nc3c2)CCC4)c1OC | – | inactive: 16% |
| COc1ccc2nc(Nc3nc4ccc(NC(C)=O)cc4s3)sc2c1 | inconclusive: 35.5 µM [inhibitor, single point] | – |
| Cc1cccc2sc(NNC(=O)c3ccc(S(=O)(=O)N4CCc5ccccc5C4)cc3)nc12 | inconclusive: 29.1 µM [inhibitor, single point] | – |
| CCSc1cc(N2CC(C)OC(C)C2)nc(-c2ccccc2Cl)n1 (centres undefined) | inconclusive: 10 µM [inhibitor, partial curve, poor fit] | – |
| C=C1C(=O)OC2CC1C(O)CC(C)=CCCC(C)=CC(O)CC2C (centres undefined) | inconclusive: 3.16 µM [inhibitor, full curve, poor fit] | – |
| CN(C(=O)COC(=O)COc1ccc(Cl)cc1)C1CCCCC1 | – | inactive: 22.3% |
| Cc1ccc(N=C2NC(=O)CS2)c(C)c1 | – | inactive: 5.05% |
| CCCCn1c(N2CCC(Cc3ccccc3)CC2)nc2c1c(=O)[nH]c(=O)n2C | inconclusive: 14.1 µM [inhibitor, single point] | – |
| S=c1[nH]nc(-c2ccccc2)o1 | – | inactive: 13.6% |
| CCOC(=O)C1(CCCc2ccccc2)CCN(C(=O)CCn2cncn2)CC1 | – | inactive: 9.74% |
| CCOc1ccc(-n2c(SCC(N)=O)nc3c(c2=O)SCC3)cc1 | – | inactive: -1.14% |
| CCN(CC)S(=O)(=O)c1cc(NC(=O)c2cc([N+](=O)[O-])ccc2N2CCOCC2)ccc1C | inconclusive: 0.398 µM [inhibitor, full curve, poor fit] | – |
| CN(CCCC1CCCC1)C(=O)c1cc(COc2ccc(F)cc2F)on1 | inconclusive: 0.794 µM [inhibitor, partial curve, poor fit] | – |
| Cc1cccc(Cc2c(C)nc3nc(SCc4ccccc4F)nn3c2C)c1 | – | inactive: 13.6% [at 46.1 µM] |
| COc1ccc2[nH]c(CN3CCC(n4nccc4NC(=O)C4CC4)CC3)c(C)c2c1 | – | inactive: -22.8% |
| Cc1ccc(C(=S)N2CCN(Cc3ccccc3)CC2)cc1 | inconclusive: 22.4 µM [inhibitor, single point] | – |

Rewritten in CSV form: three of the compounds above
Compound,Potency,"activity change, negative = inhibition"
CCSc1cc(N2CC(C)OC(C)C2)nc(-c2ccccc2Cl)n1 (centres undefined),"inconclusive: 10 µM [inhibitor, partial curve, poor fit]",–
CCOc1ccc(-n2c(SCC(N)=O)nc3c(c2=O)SCC3)cc1,–,inactive: -1.14%
CN(CCCC1CCCC1)C(=O)c1cc(COc2ccc(F)cc2F)on1,"inconclusive: 0.794 µM [inhibitor, partial curve, poor fit]",–

The results go on:

| Compound | Potency | activity change, negative = inhibition |
| --- | --- | --- |
| CCOC(=O)/C(=N\Nc1ncnc2ccccc12)c1ccc(OC)cc1 | inconclusive: 3.16 µM [inhibitor, full curve] | – |
| COc1ccccc1CNC(=O)CCCn1c(=O)c2ccccc2n(Cc2ccccc2C#N)c1=O | – | inactive: 10.8% [at 46.1 µM] |
| Cc1noc(C(=O)Nc2cccc(O)c2)c1Cl | – | inactive: -1.38% |
| COc1cc(-c2oc3ccc(C)cc3c(=O)c2O)cc(OC)c1OC | inconclusive: 35.5 µM [inhibitor, single point] | – |
| Cc1cc2c(n1-c1ccc(C(=O)NCc3ccc(OC(C)C)cc3)cc1)CCCC2 | inconclusive: 35.5 µM [inhibitor, single point] | – |
| C=CCCC1CN(Cc2ccc(OC)cc2)S(=O)(=O)c2c(Oc3ccc(C)cc3)cccc2O1 (centres undefined) | inconclusive: 0.0158 µM [inhibitor, full curve, poor fit] | – |
| CCSc1ccccc1C(=O)N=C1NC(=O)CC2C(=O)NCCN12 (centres undefined) | inconclusive: 22.4 µM [activator, single point] | – |
| COc1ccc(C2C(C#N)=C(C)NC3=C2C(=O)c2ccccc23)cc1 (centres undefined) | inconclusive: 29.1 µM [inhibitor, partial curve, poor fit] | – |
| COc1cc(C(CC(=O)Nc2cc(C)ccn2)N2Cc3ccccc3C2=O)cc(OC)c1OC (centres undefined) | – | inconclusive: 2.72% [activator] |
| CS(=O)(=O)N(CCc1ccccc1)CC(=O)N1CCN(Cc2ccc3c(c2)OCO3)CC1 | inconclusive: 29.1 µM [inhibitor, single point] | – |
| COc1cccc(C2CC(=O)Nc3n[nH]c(-c4ccccc4)c32)c1OC (centres undefined) | inconclusive: 35.5 µM [inhibitor, partial curve, poor fit] | – |
| CC(=O)c1cccc(Nc2ncnc3ccc(Br)cc23)c1 | inconclusive: 17.8 µM [inhibitor, partial curve, poor fit] | – |
| CCN1C(=O)c2ccccc2S(=O)c2ccc(C(=O)N3CCN(c4ccccc4OC)CC3)cc21 (centres undefined) | inconclusive: 22.4 µM [inhibitor, single point] | – |
| O=S1(=O)N[C@@H](Cc2ccccc2)COc2cccc(NCCCN3CCOCC3)c21 | inconclusive: 0.791 µM [activator, full curve, poor fit] | – |
| COc1ccc(C(=O)NC(=S)NCc2ccco2)cc1OC | – | inactive: -12.4% |
| CCN1C(=NCc2cccc(Cl)c2)NC(c2cccc(C(F)(F)F)c2)C(C(=O)OC)=C1C (centres undefined) | – | inactive: -42% [at 14.3 µM] |
| Nc1cc2c(cc1C(=O)c1cccc(Br)c1)OCCO2 | inconclusive: 2.24 µM [inhibitor, partial curve, poor fit] | – |
| CCC1(c2ccc(F)cc2)NC(=O)N(CC(=O)c2cc(C)n(C3CC3)c2C)C1=O (centres undefined) | inconclusive: 0.224 µM [activator, full curve, poor fit] | – |
| Cc1nc2ccc(S(=O)(=O)NC(C(=O)N3CCN(c4cccc(Cl)c4)CC3)C(C)C)cc2s1 (centres undefined) | inconclusive: 15.8 µM [inhibitor, partial curve, poor fit] | – |
| O=C(CSc1cccc[n+]1[O-])N1CCCc2ccccc21 | – | inactive: -1.32% |
| Cc1ccc(-c2onc(C)c2C)cc1S(=O)(=O)Nc1cccc(Cl)c1C | inconclusive: 8.91 µM [inhibitor, single point] | – |
| NNC(=O)C(=O)Nc1ccc(Cl)c(Cl)c1 | inconclusive: 11.2 µM [inhibitor, single point] | – |
